Results from patent publication US6919204B2, “Modulation of gene expression using localization domains” (Sangamo Biosciences, Inc., priority 2000, dated 2005).
No constants are given. Whether binding was seen depends on the method and setting. Binding seen in cells or lysates may run through a third protein. Some binding calls cover weakened binding; strength is not graded here.

Amino acid sequences for entries named in this document (tags omitted).
UniProt O97159: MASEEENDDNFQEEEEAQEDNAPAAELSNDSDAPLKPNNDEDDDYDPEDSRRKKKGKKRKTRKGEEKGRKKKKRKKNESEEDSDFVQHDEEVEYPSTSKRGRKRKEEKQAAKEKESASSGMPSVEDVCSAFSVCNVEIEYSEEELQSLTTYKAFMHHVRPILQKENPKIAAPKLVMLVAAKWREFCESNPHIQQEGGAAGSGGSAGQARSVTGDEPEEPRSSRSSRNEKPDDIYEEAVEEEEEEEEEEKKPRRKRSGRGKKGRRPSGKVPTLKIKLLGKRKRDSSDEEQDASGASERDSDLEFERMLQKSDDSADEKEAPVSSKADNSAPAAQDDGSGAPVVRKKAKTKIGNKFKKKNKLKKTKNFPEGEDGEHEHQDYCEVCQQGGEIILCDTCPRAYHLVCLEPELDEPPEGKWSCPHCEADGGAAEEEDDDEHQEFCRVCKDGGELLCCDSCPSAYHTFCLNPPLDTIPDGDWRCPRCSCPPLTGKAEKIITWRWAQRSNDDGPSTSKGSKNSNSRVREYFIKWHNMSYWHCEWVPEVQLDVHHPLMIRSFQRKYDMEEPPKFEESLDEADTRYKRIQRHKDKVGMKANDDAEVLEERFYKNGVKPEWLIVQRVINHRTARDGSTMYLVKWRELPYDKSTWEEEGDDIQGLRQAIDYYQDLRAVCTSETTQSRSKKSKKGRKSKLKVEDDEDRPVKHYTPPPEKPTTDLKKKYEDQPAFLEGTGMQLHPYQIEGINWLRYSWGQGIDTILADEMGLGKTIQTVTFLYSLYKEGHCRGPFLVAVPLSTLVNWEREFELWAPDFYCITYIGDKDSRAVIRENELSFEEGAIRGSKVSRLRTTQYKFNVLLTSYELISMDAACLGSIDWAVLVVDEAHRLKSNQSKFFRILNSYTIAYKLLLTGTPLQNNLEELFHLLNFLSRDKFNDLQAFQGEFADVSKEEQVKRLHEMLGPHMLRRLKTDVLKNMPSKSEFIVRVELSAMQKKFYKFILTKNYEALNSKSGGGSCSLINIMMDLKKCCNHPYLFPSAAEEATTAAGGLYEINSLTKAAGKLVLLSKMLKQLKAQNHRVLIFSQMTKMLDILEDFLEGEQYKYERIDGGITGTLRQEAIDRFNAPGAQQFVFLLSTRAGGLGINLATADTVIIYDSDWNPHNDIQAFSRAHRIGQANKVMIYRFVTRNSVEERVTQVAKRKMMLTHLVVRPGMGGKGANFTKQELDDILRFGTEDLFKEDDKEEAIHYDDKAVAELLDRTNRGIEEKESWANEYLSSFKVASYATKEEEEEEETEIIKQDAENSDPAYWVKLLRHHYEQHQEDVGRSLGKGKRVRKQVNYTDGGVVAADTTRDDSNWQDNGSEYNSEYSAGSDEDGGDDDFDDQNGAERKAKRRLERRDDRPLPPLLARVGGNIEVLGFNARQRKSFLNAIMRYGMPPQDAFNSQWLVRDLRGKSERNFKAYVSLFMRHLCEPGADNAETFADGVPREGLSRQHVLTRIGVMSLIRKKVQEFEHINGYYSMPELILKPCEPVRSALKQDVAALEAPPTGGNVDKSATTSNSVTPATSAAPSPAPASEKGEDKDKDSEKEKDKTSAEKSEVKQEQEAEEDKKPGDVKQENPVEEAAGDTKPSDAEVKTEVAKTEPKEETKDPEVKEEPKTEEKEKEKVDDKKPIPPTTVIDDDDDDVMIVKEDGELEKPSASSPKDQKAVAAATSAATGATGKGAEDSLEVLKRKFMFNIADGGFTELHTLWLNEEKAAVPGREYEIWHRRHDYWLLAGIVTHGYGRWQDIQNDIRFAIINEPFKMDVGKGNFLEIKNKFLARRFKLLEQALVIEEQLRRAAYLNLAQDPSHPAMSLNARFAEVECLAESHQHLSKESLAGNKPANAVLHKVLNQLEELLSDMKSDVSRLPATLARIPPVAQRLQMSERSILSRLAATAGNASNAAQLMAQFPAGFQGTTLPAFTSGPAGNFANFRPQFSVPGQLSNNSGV

Molecular target: Mi-2 (Drosophila) (UniProt O97159)
Assay: co-elution on Superose 6 gel filtration (about 1 MDa) after BioRex 70 and MonoQ, immunoblot

B1: Drosophila MBD-likeΔ (protein)
chain: MQMNPSVTIERKRVDCSVLPKGWQRDEVRKSGSSANNNASSNNNSSATASSNNNNNKVDVFYYSRALRTDVSLVPPIRQTASIFKQPVTVIRNHKQDPAKAKNEPKHGTREKPKQLFWEKRLERLRACHDSGEELDDISLPKTIRTVGPNVNEQTVLQSVATALHMLNAGVHGQSSTKADLTKNAMAFMNPEQPLMHAVIISEDDIRKQEDRVGVARRKLQDALKT
  binding: binds
